The nature of this assay: qHTS Assay for Lipid Storage Modulators in Drosophila S3 Cells.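 For cell number change: cells counted by Cell Tracker Red CMTPX staining in the red channel.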 The note with it: BODIPY lipid droplet fluorescence, 18-24 h; for cell number change: measured here: cell count max response, cells fed with added oleic acid. In a few lines:
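Drosophila S3 cells got compounds at several concentrations plus oleic acid (400 uM solution). Laser-scanning cytometry with 488 nm excitation read lipid droplets at 500-530 nm and cells at 575-640 nm. Percent activity was relative to 20 uM Triacsin C.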
A general note: Quantitative high-throughput screening tests each substance at several concentrations.

Setting [1] is: measured here: cell number channel AC50, cells fed with added oleic acid.
The mark [2] stands for this setting: measured here: lipid fluorescence (Fed channel) AC50, cells fed with added oleic acid.

The other results are listed elsewhere or left out. Further columns of the screen follow, without active or inactive calls. The list favours compounds with an active or inconclusive main result. The note in brackets gives the kind of curve behind each potency; many fits are weak.

One may read the AC50 as the midpoint of the concentration-response curve, whichever way the signal moves. Read a high AC50 as activity only at high concentration.

Consider `CC(=O)c1ccc(N2CCN(C(=O)c3ccc(Cl)c(NC4=NC5CS(=O)(=O)CC5S4)c3)CC2)cc1` (centres undefined), for which the cell number change was 52.8%. In addition, the AC50 under setting [1] was 29.1 µM [rising, single point].

Take `Cn1cnnc1SCC(=O)c1ccc(OC(F)F)cc1`: the cell number change worked out at 11.9%. In addition, the concentration at half-maximal activity (AC50) under setting [2] is 1.16 µM [falling, full curve].

Regarding `N/C(Cn1cncn1)=N\NC(=O)C(=O)Nc1ccccc1`, the cell number change was -32.7%. Also, the AC50 under setting [2] is 2.59 µM [falling, partial curve, poor fit].

With `CC1CC(C)CN(CC(=O)NNC(=O)COc2ccc(Cl)cc2)C1` (centres undefined), the cell number change is -40.9%. For the same compound, the half-maximal activity concentration (AC50) under setting [1] was 0.00517 µM [falling, full curve, poor fit]. Also, the half-maximal activity concentration (AC50) under setting [2] is 0.00731 µM [falling, full curve, poor fit].

On to `COc1ccccc1CN1C[C@@H]2C[C@@H](c3cccc(C)n3)N3CCC[C@@]23C1=O`, for which the cell number change is 5.03%. The AC50 under setting [2] was 0.517 µM [falling, full curve, poor fit].

Regarding `Cc1cccc(N2CCN(C(=O)c3ccc(-n4cncn4)c([N+](=O)[O-])c3)CC2)c1C`, the cell number change was -26.3%. Also, under setting [2], the AC50 was 1.3 µM [rising, partial curve].

With `CC(=O)C1C(c2ccc(O)cc2)NC(=O)NC1(O)C(F)(F)F` (centres undefined), the cell number change is -24.4%. The AC50 under setting [2] was 7.31 µM [falling, partial curve].

Consider `CC(=O)Nc1ccc2c(c1)CCc1ccccc1-2`, for which the cell number change stood at 15.4%. For the same compound, the AC50 under setting [2] is 0.13 µM [rising, full curve, poor fit].

In the case of `CN(C)CCNC(=S)Nc1ccc(Br)cc1`, the cell number change was 33.3%. Also, under setting [1], the AC50 is 10.3 µM [rising, single point]. Moreover, the AC50 under setting [2] was 23.1 µM [rising, single point].

As to `COc1ccc(-c2nc(C#N)c(NCCCn3ccnc3)o2)cc1OC`, the cell number change is 46.3%. Further, the AC50 under setting [1] was 2.59 µM [rising, full curve]. Besides, the AC50 under setting [2] was 4.61 µM [rising, partial curve].

Consider `COc1ccc(N2CCC(CNC(=O)Nc3ccc(Cl)cc3)C2)cc1` (centres undefined), for which the cell number change was 53.3%. Also, the AC50 under setting [1] was 0.0206 µM [rising, full curve, poor fit]. Moreover, under setting [2], the AC50 is 0.058 µM [rising, full curve, poor fit].

For `Cc1ccc(CSc2nc3c(c(N(C)C)n2)CCCC3)cc1`, the AC50 runs as follows: under setting [1], 2.06 µM [rising, partial curve, poor fit]; under setting [2], 6.51 µM [rising, single point].

With `COc1ccc(C(C(=O)NCCC(C)C)N(CCO)C(=O)c2snc(C(N)=O)c2N)cc1OC` (centres undefined), the cell number change is -15.8%.

On to `COC(=O)C(Cc1ccc(O)cc1)NC(=O)C(C)NC(=O)c1ccc(C(C)(C)C)cc1` (centres undefined), for which the cell number change was -1.8%. Moreover, the half-maximal activity concentration (AC50) under setting [2] is 29.1 µM [falling, single point].

Turning to `CCOc1cc(CO)c(Br)cc1OCC(=O)O`, the cell number change is -0.443%. Further, the half-maximal activity concentration (AC50) under setting [2] was 29.1 µM [falling, single point].

Turning to `Cn1c(SCC(=O)Nc2ccc(F)cc2)nc2c([nH]c3ccccc32)c1=O`, the cell number change was 4.14%. Under setting [2], the AC50 was 0.116 µM [rising, full curve].

Regarding `NC(=O)c1sc2nnc(-c3ccccc3)c(-c3ccccc3)c2c1N`, the cell number change was found to be 36.1%. Also, the half-maximal activity concentration (AC50) under setting [1] is 0.411 µM [rising, full curve, poor fit]. Further, the AC50 under setting [2] was 0.517 µM [rising, full curve].

As for `Cn1ncc(Cl)c(Oc2ccc(Cl)cc2)c1=O`, the cell number change was found to be 43.7%. Under setting [1], the AC50 is 29.1 µM [rising, single point]. Besides, the half-maximal activity concentration (AC50) under setting [2] was 13 µM [falling, partial curve, poor fit].

With `O=C1Nc2ccc(F)cc2C12Nc1ccccc1-c1nnc(SCc3ccccc3Cl)nc1O2` (centres undefined), the cell number change is -12.2%.

As for `COC(=O)c1ccc(N2CCN(S(=O)(=O)c3ccc(C)cc3)CC2)c([N+](=O)[O-])c1`, the cell number change came out at 84%. Moreover, the AC50 under setting [1] is 6.51 µM [falling, single point]. Besides, the half-maximal activity concentration (AC50) under setting [2] is 6.51 µM [falling, single point].

In the case of `O=C(N=Nc1ccc(NOC(=O)c2ccccc2Br)cc1)c1ccccc1O`, the AC50 by setting is: under setting [1], 1.3 µM [rising, full curve]; under setting [2], 0.731 µM [rising, partial curve, poor fit].

Regarding `O=C(NCc1ccccc1)c1ccc(F)c(S(=O)(=O)N2CCOCC2)c1`, the cell number change was -3.53%. For the same compound, the AC50 under setting [1] was 0.184 µM [falling, full curve, poor fit].

On to `CCOc1ccc2oc(C(=O)Nc3ccc4c(c3)OCO4)c(C)c2c1`, for which the cell number change was determined as 18.4%.

For the compound `Cc1ccc(C(C)C)c(OCC(=O)Nn2c(=O)[nH]c3ccccc3c2=O)c1`, the cell number change is -56.7%. In addition, the AC50 under setting [1] is 29.1 µM [falling, single point].

For `COCCN=c1scc(-c2cccs2)n1/N=C/c1ccc(O)c(O)c1O`, the cell number change was -21.1%. In addition, under setting [2], the concentration at half-maximal activity (AC50) was 14.6 µM [falling, single point].

As to `CN1/C(=C\C=C2/SC(=S)N(CC(=O)O)C2=O)C(C)(C)c2ccccc21`, the cell number change is -98%. Besides, the AC50 under setting [1] was 7.31 µM [falling, partial curve]. Moreover, the half-maximal activity concentration (AC50) under setting [2] was 2.31 µM [falling, partial curve].

`CC(C)CN(C(=O)COC(=O)COc1ccc2ccccc2c1)c1c(N)n(Cc2ccccc2)c(=O)[nH]c1=O`: the cell number change is -73.5%. Also, under setting [1], the AC50 is 23.1 µM [falling, single point].

With `CCC(C)c1ccc(NC(=S)N2CCN(S(C)(=O)=O)CC2)cc1` (centres undefined), the cell number change came out at 7.54%. The AC50 under setting [2] was 6.51 µM [rising, single point].

Consider `COc1cccc(NC(=O)CN(C)C(=O)c2cccc(NS(=O)(=O)c3ccccc3)c2)c1`, for which the cell number change is -0.777%. Further, the concentration at half-maximal activity (AC50) under setting [2] is 6.51 µM [falling, single point].

With `COc1ccc(NC(=O)N2CCN(S(C)(=O)=O)CC2)c(OC)c1`, the cell number change was -35.3%. For the same compound, the AC50 under setting [1] is 29.1 µM [falling, single point]. In addition, the concentration at half-maximal activity (AC50) under setting [2] was 29.1 µM [falling, single point].

As to `Cc1cc(NC(=O)CSc2cn(CCNC(=O)c3ccc(F)cc3)c3ccccc23)no1`, the cell number change is -31.1%. Further, the AC50 under setting [1] was 8.2 µM [falling, partial curve, poor fit]. Besides, under setting [2], the concentration at half-maximal activity (AC50) was 0.146 µM [falling, full curve, poor fit].

Turning to `CC(C)N1CCN(c2ccncc2S(=O)(=O)N2CCOCC2)CC1`, the cell number change was -29.5%. Also, the AC50 under setting [1] was 3.66 µM [falling, full curve, poor fit]. For the same compound, under setting [2], the concentration at half-maximal activity (AC50) is 29.1 µM [falling, single point].

With `Oc1ccc(N=Cc2c(O)ccc3ccccc23)cc1`, the cell number change was -41.2%. Moreover, the half-maximal activity concentration (AC50) under setting [1] was 29.1 µM [falling, single point].

For the origin of these results see PubChem BioAssay AID2685 (National Center for Advancing Translational Sciences (NCATS), 2010).
